# Values from PubChem BioAssay AID493246 (Drosophila RNAi Screening Center, 2011).
# Purpose: 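Identify essential fly genes by loss of cell viability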 (primary screen)
# Cell system: Drosophila Kc and S2R+ cells
# Reagent: long dsRNA against Drosophila genes
# Measured: 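Raw, unnormalised count of remaining cells in each well; per-plate z-scores of cell number underlie the calls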
# Direction: Kc cell number and S2R+ cell number: higher = more cells remaining
# Hit rule: 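Active when the per-plate z-score of cell number is 3 or more in the direction of fewer cells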
# The deposit covers about 21,000 reagents; shown is a random part of those that have a named target and a result. Of all reagents, 429 (2%) got an active call. 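Values are raw and not normalised between plates; calls rest on per-plate z-scores that were not deposited.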 Names joined by + are all predicted targets of the reagent. Not stated in the record: the amount of reagent, the time to read-out.
gene,PubChem SID,"Kc cell number, rep 1","Kc cell number, rep 2","S2R+ cell number, rep 1","S2R+ cell number, rep 2",outcome
Ae2,SID104190761,1.44e6,1.55e6,1.25e6,1.09e6,inactive
GCS1,SID104199536,5.43e5,,8.61e5,,inactive
CG7912,SID104196135,1.53e6,1.60e6,1.10e6,1.20e6,inactive
CG11413 + CG4622,SID104183901,1.85e6,1.93e6,1.28e6,1.37e6,inactive
CG13972,SID104194507,1.52e6,1.52e6,9.82e5,1.14e6,inactive
Prp40,SID104180404,1.26e6,1.32e6,5.67e5,7.48e5,inactive
CG6933,SID104190543,1.48e6,1.53e6,1.22e6,1.26e6,inactive
Gr2a,SID104198395,1.67e6,1.70e6,1.05e6,1.16e6,inactive
CtsL3,SID104191963,1.55e6,1.59e6,1.25e6,1.32e6,inactive
Fst,SID104196283,1.60e6,1.66e6,1.27e6,1.33e6,inactive
CG6664,SID104190482,1.56e6,1.63e6,1.14e6,1.23e6,inactive
Ugt36F1,SID104182393,1.54e6,1.58e6,1.32e6,3.47e5,inactive
CG42355,SID104187759,1.48e6,1.37e6,9.44e5,1.03e6,inactive
Scgbeta,SID104195646,1.60e6,1.81e6,1.24e6,1.34e6,inactive
CG7985,SID104193920,1.58e6,1.69e6,1.24e6,1.32e6,inactive
CG9147,SID104182939,1.54e6,1.40e6,1.15e6,1.34e6,inactive
LamC,SID104187245,1.40e6,1.42e6,1.07e6,1.17e6,inactive
CG10154,SID104189499,1.32e6,1.32e6,1.28e6,1.37e6,inactive
Ufd4,SID104182663,1.48e6,1.55e6,1.17e6,1.30e6,inactive
AMPdeam,SID104198788,1.45e6,1.58e6,1.07e6,1.16e6,inactive
AMPdeam,SID104199158,6.06e5,,9.39e5,,inactive
AMPdeam,SID104199160,1.70e6,1.72e6,1.08e6,1.19e6,inactive
AMPdeam,SID104199519,1.59e6,1.73e6,1.16e6,1.25e6,inactive

No new results follow: 9 of the entries above.
gene,PubChem SID,"Kc cell number, rep 1","Kc cell number, rep 2","S2R+ cell number, rep 1","S2R+ cell number, rep 2",outcome
CG42355,SID104187759,1.48e6,1.37e6,9.44e5,1.03e6,inactive
Scgbeta,SID104195646,1.60e6,1.81e6,1.24e6,1.34e6,inactive
CG7985,SID104193920,1.58e6,1.69e6,1.24e6,1.32e6,inactive
CG9147,SID104182939,1.54e6,1.40e6,1.15e6,1.34e6,inactive
LamC,SID104187245,1.40e6,1.42e6,1.07e6,1.17e6,inactive
CG10154,SID104189499,1.32e6,1.32e6,1.28e6,1.37e6,inactive
Ufd4,SID104182663,1.48e6,1.55e6,1.17e6,1.30e6,inactive
AMPdeam,SID104198788,1.45e6,1.58e6,1.07e6,1.16e6,inactive
AMPdeam,SID104199158,6.06e5,,9.39e5,,inactive

The list goes on.
gene,PubChem SID,"Kc cell number, rep 1","Kc cell number, rep 2","S2R+ cell number, rep 1","S2R+ cell number, rep 2",outcome
f-cup,SID104193931,1.47e6,1.53e6,1.30e6,1.34e6,inactive
Nepl11,SID104192125,1.57e6,1.60e6,1.11e6,1.15e6,inactive
l(3)76BDm,SID104190839,1.48e6,1.47e6,1.31e6,1.28e6,inactive
rump,SID104196272,1.39e6,1.40e6,1.26e6,1.34e6,inactive
Sys1,SID104194164,1.33e6,1.50e6,1.17e6,1.31e6,inactive
CG2680,SID104198258,1.54e6,1.54e6,1.03e6,1.13e6,inactive
Polr2E,SID104185892,1.50e6,1.57e6,9.92e5,1.12e6,inactive
CG6294 + CG6299 + CG15642,SID104199773,1.52e6,1.48e6,1.06e6,1.13e6,inactive
Hacl,SID104185853,1.65e6,1.57e6,1.13e6,1.09e6,inactive
pnt,SID104196820,1.26e6,1.29e6,7.07e5,7.93e5,inactive
l(2)k09913,SID104184491,1.31e6,1.38e6,1.01e6,1.09e6,inactive
prom,SID104184476,1.42e6,1.51e6,1.25e6,1.33e6,inactive
CG42755 (retired record),SID104188897,1.48e6,1.70e6,1.10e6,1.25e6,inactive
CG42755 (retired record),SID104188898,1.46e6,1.56e6,1.02e6,1.23e6,inactive
snk,SID104196852,1.48e6,1.49e6,1.10e6,1.21e6,inactive
CG11168,SID104194084,1.55e6,1.68e6,1.24e6,1.37e6,inactive
CG15756,SID104199513,1.67e6,1.57e6,1.07e6,1.23e6,inactive
CG17325 + CG42305,SID104182394,1.56e6,1.66e6,1.33e6,3.44e5,inactive
Trf2,SID104198519,1.64e6,1.66e6,8.22e5,9.10e5,inactive
CG7214,SID104182820,1.45e6,1.39e6,5.84e5,9.43e5,inactive
dcma,SID104180038,1.49e6,1.53e6,1.03e6,1.14e6,inactive
dcma,SID104180130,1.58e6,1.40e6,1.14e6,1.23e6,inactive
Pcf11,SID104185775,5.12e5,7.46e5,3.41e5,4.86e5,active
Nt5c,SID104186503,1.51e6,1.60e6,9.58e5,9.39e5,inactive
dhd,SID104198553,6.20e5,,8.34e5,,inactive
Cib2,SID104184327,1.52e6,1.64e6,1.32e6,3.95e5,inactive
pgc,SID104183891,1.46e6,1.88e6,1.53e6,5.94e5,inactive
CG12128,SID104185896,1.33e6,1.47e6,1.09e6,1.16e6,inactive
Polr2A,SID104200072,4.40e5,,5.86e5,,inactive
RpL17,SID104198085,3.31e5,,5.55e5,,inactive
ft,SID104180611,1.37e6,1.34e6,1.21e6,1.29e6,inactive
CG31998,SID104196929,5.19e5,,7.90e5,,inactive
CG31998,SID104196930,1.47e6,1.44e6,1.01e6,1.11e6,inactive
Edem1,SID104198365,4.86e5,,7.84e5,,inactive
Lar,SID104181499,1.51e6,1.53e6,9.47e5,1.16e6,inactive
Lar,SID104183153,1.38e6,1.42e6,1.34e6,1.41e6,inactive
